The list shows a part of the results.
Assays:
Assay in all cases: log2 fold change, soluble protein after heating vs DMSO (PISA); higher = thermal stabilisation; K562 cells, 10 uM, 30 min; active = over 0.2 and 3.5 SD of the protein, either way, in both replicates (recomputed)
[1] = compound: CC1=C(C=C(C=C1)NC(=O)C2=CC(=CC=C2)C(C)(C)C#N)NC3=CC4=C(C=C3)N=CN(C4=O)C
Summary of the method: (§1)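 K562 cells at 2×10^6 cells/mL were treated for 30 min with 10 μM compound, and aliquots were heated for 3 min over 48°C-58°C before pooling. Extraction used PBS with 0.5% NP-40 at 4°C, and soluble protein was the supernatant after 21,000xg for 90 min, measured by TMTpro 16plex LC-MS/MS with channel sums equalised. Thermal stability values, relative to control samples and from duplicates, are log2 fold changes.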

By UniProt entry, the sequences of proteins in these tests, tags left out. Where a name states a change or a piece, a line headed by the entry shows the natural chain unless it says otherwise.
UniProt P62191: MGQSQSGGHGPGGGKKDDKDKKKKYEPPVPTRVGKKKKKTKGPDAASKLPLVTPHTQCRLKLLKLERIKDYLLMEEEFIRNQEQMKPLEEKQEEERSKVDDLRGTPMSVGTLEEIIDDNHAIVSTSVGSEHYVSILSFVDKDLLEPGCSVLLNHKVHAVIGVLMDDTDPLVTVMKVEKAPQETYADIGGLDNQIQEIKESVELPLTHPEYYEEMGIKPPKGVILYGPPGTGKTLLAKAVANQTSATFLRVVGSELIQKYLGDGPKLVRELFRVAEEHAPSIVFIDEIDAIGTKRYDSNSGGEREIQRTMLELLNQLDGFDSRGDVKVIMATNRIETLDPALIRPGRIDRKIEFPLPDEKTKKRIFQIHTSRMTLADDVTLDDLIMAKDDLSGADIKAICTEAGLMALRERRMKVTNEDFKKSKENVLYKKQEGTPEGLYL
UniProt Q05209: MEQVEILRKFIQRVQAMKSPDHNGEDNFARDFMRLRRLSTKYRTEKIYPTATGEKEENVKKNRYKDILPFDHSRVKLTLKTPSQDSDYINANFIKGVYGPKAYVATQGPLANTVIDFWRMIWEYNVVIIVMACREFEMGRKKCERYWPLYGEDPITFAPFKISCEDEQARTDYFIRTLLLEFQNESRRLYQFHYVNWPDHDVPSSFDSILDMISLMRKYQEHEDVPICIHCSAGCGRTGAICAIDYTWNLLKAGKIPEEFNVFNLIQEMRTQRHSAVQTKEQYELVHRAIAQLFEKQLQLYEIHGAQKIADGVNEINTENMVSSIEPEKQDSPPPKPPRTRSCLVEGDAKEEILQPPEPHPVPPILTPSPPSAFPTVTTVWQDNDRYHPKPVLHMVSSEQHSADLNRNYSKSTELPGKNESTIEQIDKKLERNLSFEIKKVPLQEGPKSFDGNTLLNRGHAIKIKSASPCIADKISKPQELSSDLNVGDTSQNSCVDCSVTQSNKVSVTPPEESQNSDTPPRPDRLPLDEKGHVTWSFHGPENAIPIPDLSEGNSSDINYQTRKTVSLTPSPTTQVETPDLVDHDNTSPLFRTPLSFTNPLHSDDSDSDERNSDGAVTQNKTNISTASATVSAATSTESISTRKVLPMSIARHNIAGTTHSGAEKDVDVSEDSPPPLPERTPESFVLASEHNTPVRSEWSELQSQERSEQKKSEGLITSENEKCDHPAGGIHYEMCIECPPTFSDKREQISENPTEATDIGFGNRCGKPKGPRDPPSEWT
UniProt Q15257: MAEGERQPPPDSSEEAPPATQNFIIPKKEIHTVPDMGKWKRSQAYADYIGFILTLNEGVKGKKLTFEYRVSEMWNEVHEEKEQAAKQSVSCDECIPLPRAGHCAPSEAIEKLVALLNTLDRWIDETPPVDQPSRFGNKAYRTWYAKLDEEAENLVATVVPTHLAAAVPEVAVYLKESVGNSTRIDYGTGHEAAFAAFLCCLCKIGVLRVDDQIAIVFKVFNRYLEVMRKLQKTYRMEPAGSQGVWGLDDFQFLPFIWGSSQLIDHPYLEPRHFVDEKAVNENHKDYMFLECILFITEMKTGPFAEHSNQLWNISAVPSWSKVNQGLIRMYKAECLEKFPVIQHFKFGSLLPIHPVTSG
UniProt P06454: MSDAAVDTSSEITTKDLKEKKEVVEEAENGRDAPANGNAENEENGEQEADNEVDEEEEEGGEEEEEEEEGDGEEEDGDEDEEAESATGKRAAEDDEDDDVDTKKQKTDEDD
UniProt Q93096: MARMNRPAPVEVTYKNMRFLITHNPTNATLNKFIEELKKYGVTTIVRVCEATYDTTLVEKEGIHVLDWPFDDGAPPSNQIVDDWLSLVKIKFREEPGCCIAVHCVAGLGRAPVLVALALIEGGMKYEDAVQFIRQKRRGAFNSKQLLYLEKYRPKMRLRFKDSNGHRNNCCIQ
UniProt Q9BRQ0: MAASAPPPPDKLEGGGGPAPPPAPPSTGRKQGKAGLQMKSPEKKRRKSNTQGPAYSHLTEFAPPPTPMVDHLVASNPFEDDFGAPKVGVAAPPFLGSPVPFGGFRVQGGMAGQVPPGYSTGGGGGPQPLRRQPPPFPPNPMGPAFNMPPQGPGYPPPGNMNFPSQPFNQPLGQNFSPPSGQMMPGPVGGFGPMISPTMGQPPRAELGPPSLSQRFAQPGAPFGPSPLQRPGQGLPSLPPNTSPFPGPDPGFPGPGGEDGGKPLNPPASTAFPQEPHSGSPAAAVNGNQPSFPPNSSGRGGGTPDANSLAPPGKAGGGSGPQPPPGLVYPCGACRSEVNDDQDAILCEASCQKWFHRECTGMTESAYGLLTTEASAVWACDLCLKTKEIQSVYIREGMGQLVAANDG
UniProt Q00577: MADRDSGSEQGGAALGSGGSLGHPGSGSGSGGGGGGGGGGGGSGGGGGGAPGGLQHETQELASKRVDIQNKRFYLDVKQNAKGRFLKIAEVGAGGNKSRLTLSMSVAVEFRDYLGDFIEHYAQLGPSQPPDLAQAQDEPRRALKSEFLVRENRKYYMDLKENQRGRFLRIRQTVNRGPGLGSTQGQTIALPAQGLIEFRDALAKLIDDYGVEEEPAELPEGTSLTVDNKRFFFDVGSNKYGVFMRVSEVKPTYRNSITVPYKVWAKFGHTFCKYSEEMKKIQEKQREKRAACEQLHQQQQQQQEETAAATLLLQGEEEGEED
UniProt Q14997: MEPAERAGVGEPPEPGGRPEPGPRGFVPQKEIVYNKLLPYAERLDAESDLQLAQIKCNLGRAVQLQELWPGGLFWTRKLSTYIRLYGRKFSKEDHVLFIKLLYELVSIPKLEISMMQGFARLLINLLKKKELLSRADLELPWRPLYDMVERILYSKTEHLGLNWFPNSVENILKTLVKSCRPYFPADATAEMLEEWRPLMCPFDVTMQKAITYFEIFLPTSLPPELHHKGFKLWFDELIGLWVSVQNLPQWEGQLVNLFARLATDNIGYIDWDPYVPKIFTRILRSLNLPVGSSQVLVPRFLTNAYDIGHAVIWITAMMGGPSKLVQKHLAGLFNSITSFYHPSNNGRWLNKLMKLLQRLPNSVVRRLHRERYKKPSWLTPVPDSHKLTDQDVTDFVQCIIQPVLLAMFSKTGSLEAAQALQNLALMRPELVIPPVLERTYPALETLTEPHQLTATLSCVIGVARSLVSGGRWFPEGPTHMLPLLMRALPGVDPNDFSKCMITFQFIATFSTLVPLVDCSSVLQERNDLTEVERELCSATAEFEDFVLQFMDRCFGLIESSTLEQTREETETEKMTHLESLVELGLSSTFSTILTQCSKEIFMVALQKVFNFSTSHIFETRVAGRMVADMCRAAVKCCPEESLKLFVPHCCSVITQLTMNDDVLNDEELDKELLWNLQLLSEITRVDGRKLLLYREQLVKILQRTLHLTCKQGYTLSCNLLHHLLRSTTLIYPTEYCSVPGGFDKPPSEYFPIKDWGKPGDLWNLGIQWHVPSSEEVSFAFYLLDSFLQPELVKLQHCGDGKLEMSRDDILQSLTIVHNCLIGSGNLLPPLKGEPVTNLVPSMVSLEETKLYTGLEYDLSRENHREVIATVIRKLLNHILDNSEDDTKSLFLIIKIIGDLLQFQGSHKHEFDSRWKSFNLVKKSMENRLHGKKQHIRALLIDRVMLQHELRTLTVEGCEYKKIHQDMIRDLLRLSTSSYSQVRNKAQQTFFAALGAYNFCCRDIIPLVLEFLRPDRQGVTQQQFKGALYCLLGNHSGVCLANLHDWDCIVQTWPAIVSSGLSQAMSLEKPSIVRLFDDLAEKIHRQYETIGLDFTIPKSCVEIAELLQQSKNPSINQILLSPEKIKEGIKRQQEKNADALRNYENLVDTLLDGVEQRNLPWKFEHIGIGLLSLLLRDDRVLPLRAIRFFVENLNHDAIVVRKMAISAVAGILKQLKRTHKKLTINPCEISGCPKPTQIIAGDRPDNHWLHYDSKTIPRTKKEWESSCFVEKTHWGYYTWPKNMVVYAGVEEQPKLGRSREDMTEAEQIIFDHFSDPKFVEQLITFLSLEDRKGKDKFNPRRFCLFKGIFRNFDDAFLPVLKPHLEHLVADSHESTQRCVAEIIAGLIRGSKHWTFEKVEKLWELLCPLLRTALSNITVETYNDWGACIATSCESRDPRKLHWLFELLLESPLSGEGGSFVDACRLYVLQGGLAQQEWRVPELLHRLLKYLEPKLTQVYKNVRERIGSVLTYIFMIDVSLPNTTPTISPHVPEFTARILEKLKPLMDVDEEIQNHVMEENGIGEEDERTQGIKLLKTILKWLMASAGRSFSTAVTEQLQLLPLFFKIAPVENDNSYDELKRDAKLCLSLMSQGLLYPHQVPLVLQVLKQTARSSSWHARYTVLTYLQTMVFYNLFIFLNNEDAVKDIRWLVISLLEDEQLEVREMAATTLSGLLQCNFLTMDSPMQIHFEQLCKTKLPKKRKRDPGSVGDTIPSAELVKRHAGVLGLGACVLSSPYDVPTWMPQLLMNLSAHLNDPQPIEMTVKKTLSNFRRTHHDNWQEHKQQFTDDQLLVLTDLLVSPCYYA
UniProt P47897: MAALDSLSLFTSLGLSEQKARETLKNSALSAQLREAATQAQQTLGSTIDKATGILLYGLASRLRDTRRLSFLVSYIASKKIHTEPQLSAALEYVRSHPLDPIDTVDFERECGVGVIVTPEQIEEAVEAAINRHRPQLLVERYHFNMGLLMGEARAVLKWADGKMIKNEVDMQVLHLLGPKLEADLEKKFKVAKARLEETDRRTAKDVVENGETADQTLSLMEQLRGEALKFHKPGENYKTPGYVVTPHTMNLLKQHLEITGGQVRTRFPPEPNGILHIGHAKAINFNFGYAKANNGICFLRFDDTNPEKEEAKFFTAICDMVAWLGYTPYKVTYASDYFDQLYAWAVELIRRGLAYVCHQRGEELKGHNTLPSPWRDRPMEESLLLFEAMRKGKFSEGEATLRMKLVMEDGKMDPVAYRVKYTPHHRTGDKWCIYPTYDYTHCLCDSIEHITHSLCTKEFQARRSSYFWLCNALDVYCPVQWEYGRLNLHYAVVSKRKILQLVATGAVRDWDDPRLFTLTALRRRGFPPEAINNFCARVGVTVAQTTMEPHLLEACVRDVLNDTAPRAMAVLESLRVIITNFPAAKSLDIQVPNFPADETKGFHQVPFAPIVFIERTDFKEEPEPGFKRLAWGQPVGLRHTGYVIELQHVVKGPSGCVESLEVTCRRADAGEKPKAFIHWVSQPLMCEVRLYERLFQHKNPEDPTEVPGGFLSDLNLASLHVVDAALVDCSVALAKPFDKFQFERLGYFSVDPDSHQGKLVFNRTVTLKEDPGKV
UniProt P28070, whole entry, looked up: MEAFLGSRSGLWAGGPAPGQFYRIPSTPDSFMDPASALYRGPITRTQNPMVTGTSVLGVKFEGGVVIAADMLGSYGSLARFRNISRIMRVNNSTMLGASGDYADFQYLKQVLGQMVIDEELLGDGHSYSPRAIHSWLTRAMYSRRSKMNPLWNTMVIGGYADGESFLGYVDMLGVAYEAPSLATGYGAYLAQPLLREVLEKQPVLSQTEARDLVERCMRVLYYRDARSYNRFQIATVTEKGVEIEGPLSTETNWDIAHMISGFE
UniProt Q8WUK0: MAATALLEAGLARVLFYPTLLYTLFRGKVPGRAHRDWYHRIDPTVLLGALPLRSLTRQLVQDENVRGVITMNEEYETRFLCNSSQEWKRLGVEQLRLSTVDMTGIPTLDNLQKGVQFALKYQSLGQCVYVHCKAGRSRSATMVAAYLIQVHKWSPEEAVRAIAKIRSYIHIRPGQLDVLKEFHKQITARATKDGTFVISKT
UniProt Q15185: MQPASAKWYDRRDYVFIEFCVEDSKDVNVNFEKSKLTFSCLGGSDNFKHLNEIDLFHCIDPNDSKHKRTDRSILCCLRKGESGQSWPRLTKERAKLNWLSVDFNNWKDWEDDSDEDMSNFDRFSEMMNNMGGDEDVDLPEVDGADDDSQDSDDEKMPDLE
UniProt O00233: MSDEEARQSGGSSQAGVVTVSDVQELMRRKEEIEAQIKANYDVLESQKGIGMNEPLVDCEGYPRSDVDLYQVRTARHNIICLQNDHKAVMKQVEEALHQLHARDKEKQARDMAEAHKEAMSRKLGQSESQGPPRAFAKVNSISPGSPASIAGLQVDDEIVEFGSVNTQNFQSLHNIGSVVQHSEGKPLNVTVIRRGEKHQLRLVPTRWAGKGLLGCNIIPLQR
UniProt Q96PU8: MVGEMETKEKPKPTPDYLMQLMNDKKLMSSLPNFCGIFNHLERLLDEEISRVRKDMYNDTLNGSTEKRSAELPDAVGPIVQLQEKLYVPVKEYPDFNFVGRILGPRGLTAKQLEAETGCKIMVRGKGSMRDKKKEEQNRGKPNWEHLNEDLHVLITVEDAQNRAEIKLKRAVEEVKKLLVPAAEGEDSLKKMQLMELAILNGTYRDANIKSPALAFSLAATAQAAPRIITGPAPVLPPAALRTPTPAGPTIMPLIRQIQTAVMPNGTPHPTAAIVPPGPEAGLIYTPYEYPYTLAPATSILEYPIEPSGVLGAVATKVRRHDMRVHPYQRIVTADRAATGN

[2] = compound: CC1=C(C=C(C=C1)NC(=O)C2=CC(=CC=C2)N(C)C)NC(=O)C3=CC=C(C=C3)O
Summary of the method: as §1

[3] = compound: CC1=CC=C(C=C1)SC2=C3C=C(SC3=CN=C2)C(=O)N
Summary of the method: as §1

[4] = compound: CC1=NC(=CC=C1)C2=C(N=C(N2)C(C)(C)C)C3=CC4=NC=CN=C4C=C3
Summary of the method: as §1

[5] = compound: CCCCN(Cc1ccc(C(=O)NO)cc1)C(=O)Nc1ccccc1 [Nexturastat A]
Summary of the method: as §1

[6] = compound: CCCS(=O)(=O)Nc1ccc(F)c(C(=O)c2c[nH]c3ncc(-c4ccc(Cl)cc4)cc23)c1F [vemurafenib]
Summary of the method: as §1

[7] = compound: CCCS(=O)(=O)Nc1ccc(F)c(C(=O)c2c[nH]c3ncc(Cl)cc23)c1F
Summary of the method: as §1

[8] = compound: CCCc1cc(C)[nH]c(=O)c1CNC(=O)c1cc(-c2ccnc(N3CCN(C)CC3)c2)cc2c1cnn2C(C)C
Summary of the method: as §1

[9] = compound: CCN(CC)Cc1ccc2cc(COC(=O)Nc3ccc(C(=O)NO)cc3)ccc2c1 [givinostat]
Summary of the method: as §1

[10] = compound: CCN(CCCOc1ccc2c(Nc3cc(CC(=O)Nc4cccc(F)c4)[nH]n3)ncnc2c1)CCOP(=O)(O)O [barasertib]
Summary of the method: as §1

[11] = compound: CC[C@@H]1C(=O)N(C)c2cnc(Nc3ccc(C(=O)NC4CCN(C)CC4)cc3OC)nc2N1C1CCCC1
Summary of the method: as §1

[12] = compound: CC[C@@H]1C(=O)N(C)c2cnc(Nc3ccc(C(=O)N[C@H]4CC[C@H](N5CCN(CC6CC6)CC5)CC4)cc3OC)nc2N1C(C)C [volasertib]
Summary of the method: as §1

[13] = compound: CC[C@H](C)N1C=C(C2=C(C=C(C=C21)C3=CN=C(C=C3)N4CCNCC4)C(=O)NCC5=C(C=C(NC5=O)C)C)C
Summary of the method: as §1

[14] = compound: CC[C@H](C)[C@@H](C(=O)N[C@@H]([C@@H](C)O)C(=O)N[C@@H](CC(C)C)C(=O)[C@]1(CO1)C)NC(=O)[C@H]([C@@H](C)CC)N(C)C(=O)C [epoxomicin]
Summary of the method: as §1

[15] = compound: CCn1cc(-c2ccnc3[nH]c(-c4cccc(CN(C)C)c4)cc23)c(-c2ccc(NC(=O)N(C)C)cc2)n1
Summary of the method: as §1

[16] = compound: CN(C)CC(=O)Nc1ccc2[nH]c(=O)c3ccccc3c2c1
Summary of the method: as §1

[17] = compound: CN1C2=C(C3=C1C(=O)N(N=C3)CC4=CC(=CC=C4)N)SC(=C2)S(=O)C
Summary of the method: as §1

[18] = compound: CN1CCC(CNc2ccc3ncc(-c4cccc(OC(F)(F)F)c4)n3n2)CC1
Summary of the method: as §1

[19] = compound: CCn1c(C(=O)N(C2CC2)C2CC2)cc2c3c(ncn3C)c(Nc3cc(C)n(C)n3)nc21
Summary of the method: as §1

[20] = compound: CN(CCOC1=CC=C(C=C1)C[C@H]2C(=O)NC(=O)S2)C3=CC=CC=N3 (racemic) [rosiglitazone]
Summary of the method: as §1

Target | log2 fold change [1] | log2 fold change [2] | log2 fold change [3] | log2 fold change [4] | log2 fold change [5] | log2 fold change [6] | log2 fold change [7] | log2 fold change [8] | log2 fold change [9] | log2 fold change [10] | log2 fold change [11] | log2 fold change [12] | log2 fold change [13] | log2 fold change [14] | log2 fold change [15] | log2 fold change [16] | log2 fold change [17] | log2 fold change [18] | log2 fold change [19] | log2 fold change [20]
PSMC1 (UniProt P62191) | inactive: 0.024 | inactive: 0.033 | inactive: -0.038 | inactive: -0.069 | inactive: 0.026 | inactive: -0.064 | inactive: -0.06 | inactive: -0.012 | inactive: -0.073 | inactive: -0.073 | inactive: 0.038 | inactive: 0.129 | inactive: -0.015 | active: -0.342 | inactive: 0.092 | inactive: -0.003 | inactive: 0.031 | inactive: 0.051 |  | 
PTPN12 (UniProt Q05209) | inactive: -0.026 | inactive: -0.071 | inactive: -0.037 | inactive: -0.034 | inactive: 0.162 | inactive: -0.002 | inactive: 0.04 | inactive: 0.07 | inactive: 0.072 | inactive: 0.127 | inactive: -0.119 | active: -0.465 | inactive: 0.063 | inactive: -0.012 | inactive: 0.027 | inactive: 0.015 | inactive: 0.079 | inactive: -0.043 |  | 
PTGFRN (UniProt Q9P2B2) | inactive: -0.044 | inactive: -0.025 | inactive: 0.006 | inactive: -0.012 | inactive: -0.021 | inactive: 0.013 | inactive: -0.045 | inactive: -0.03 | inactive: 0.007 | inactive: -0.043 | inactive: 0.032 | inactive: 0.008 | inactive: 0 | inactive: 0.014 | inactive: -0.049 | inactive: -0.01 | inactive: -0.104 | inactive: 0.181 |  | 
PTPA (UniProt Q15257) | inactive: 0.001 | inactive: -0.01 | inactive: 0.004 | inactive: 0.014 | inactive: -0.006 | inactive: 0.044 | inactive: -0.017 | inactive: -0.046 | inactive: -0.005 | inactive: -0.007 | inactive: -0.007 | inactive: 0.004 | inactive: -0.012 | inactive: 0.051 | inactive: -0.06 | inactive: -0.002 | inactive: -0.072 | inactive: -0.009 |  | 
PTMA (UniProt P06454) | inactive: 0.133 | inactive: -0.041 | inactive: 0.053 | inactive: 0.213 | inactive: -0.077 | inactive: 0.05 | inactive: -0.044 | inactive: -0.008 | inactive: -0.022 | inactive: -0.013 | inactive: -0.167 | inactive: 0.112 | inactive: -0.064 | inactive: 0.2 | inactive: -0.009 | inactive: -0.01 | inactive: -0.027 | inactive: -0.052 |  | 
PTP4A1 (UniProt Q93096) | inactive: -0.007 | inactive: -0.005 | inactive: 0.023 | inactive: 0.023 | inactive: 0.002 | inactive: 0 | inactive: 0.062 | inactive: -0.024 | inactive: -0.003 | inactive: 0.035 | inactive: 0.025 | inactive: 0.019 | inactive: 0.036 | inactive: 0.065 | inactive: -0.055 | inactive: -0.044 | inactive: -0.043 | inactive: 0.022 |  | 
PYGO2 (UniProt Q9BRQ0) | inactive: 0.104 | inactive: 0.032 | inactive: -0.115 | inactive: 0.011 | inactive: 0.02 | inactive: -0.12 | inactive: 0.072 | inactive: 0.003 | inactive: -0.039 | inactive: 0.05 | inactive: -0.035 | inactive: -0.196 | inactive: -0.018 | inactive: -0.062 | inactive: 0.074 | inactive: -0.174 |  | inactive: 0 | inactive: 0.057 | inactive: 0.032
PURA (UniProt Q00577) | inactive: 0.032 | inactive: 0.032 | inactive: -0.101 | inactive: -0.121 | inactive: 0.112 | inactive: -0.111 | inactive: -0.143 | inactive: 0.144 | inactive: -0.008 | inactive: -0.091 | inactive: 0.355 | inactive: 0.418 | inactive: -0.087 | inactive: -0.197 | inactive: 0.26 | inactive: -0.095 | inactive: 0.327 | inactive: 0.441 |  | 
PSME4 (UniProt Q14997) | inactive: 0.017 | inactive: -0.02 | inactive: -0.024 | inactive: -0.017 | inactive: -0.034 | inactive: -0.014 | inactive: -0.005 | inactive: -0.043 | inactive: 0.022 | inactive: -0.007 | inactive: 0.076 | inactive: 0.038 | inactive: 0.04 | active: 0.35 | inactive: -0.069 | inactive: 0.02 | inactive: 0.001 | inactive: -0.137 |  | 
QARS (UniProt P47897) | inactive: 0.08 | inactive: 0.084 | inactive: -0.002 | inactive: -0.106 | inactive: 0.525 | inactive: -0.085 | inactive: 0.029 | inactive: 0.248 | inactive: 0.18 | inactive: 0.041 | inactive: 0.164 | inactive: 0.042 | inactive: 0.07 | inactive: -0.277 | inactive: 0.177 | inactive: -0.088 | inactive: 0.384 | inactive: 0.075 | inactive: -0.034 | inactive: -0.011
PSMB4 (UniProt P28070) | inactive: -0.026 | inactive: 0.02 | inactive: -0.075 | inactive: -0.031 | inactive: 0.023 | inactive: -0.027 | inactive: -0.029 | inactive: 0.008 | inactive: -0.008 | inactive: -0.052 | inactive: 0.073 | inactive: 0.114 | inactive: -0.043 | inactive: -0.202 | inactive: 0.031 | inactive: -0.028 | inactive: 0.021 | inactive: 0.057 |  | 
PTPMT1 (UniProt Q8WUK0) | inactive: 0.043 | inactive: -0.019 | inactive: 0.025 | inactive: 0.025 | inactive: -0.114 | inactive: -0.047 | inactive: 0.031 | inactive: -0.029 | inactive: -0.029 | inactive: 0.041 | inactive: -0.298 | inactive: -0.127 | inactive: 0.002 | inactive: 0.088 | inactive: -0.051 | inactive: 0.012 | inactive: -0.006 | active: -1.21 |  | 
PTGES3 (UniProt Q15185) | inactive: 0.039 | inactive: -0.073 | inactive: 0.044 | inactive: 0.078 | inactive: -0.046 | inactive: 0.032 | inactive: 0.111 | inactive: 0.034 | inactive: 0.026 | inactive: 0.064 | inactive: -0.21 | active: -0.504 | inactive: 0.096 | inactive: 0.041 | inactive: -0.11 | inactive: 0.049 | inactive: -0.045 | inactive: -0.134 |  | 
PSMD9 (UniProt O00233) | inactive: -0.012 | inactive: 0.018 | inactive: 0.021 | inactive: 0.012 | inactive: -0.068 | inactive: -0.014 | inactive: -0.021 | inactive: -0.016 | inactive: -0.004 | inactive: 0 | inactive: -0.011 | inactive: 0.086 | inactive: 0.004 | inactive: -0.04 | inactive: -0.137 | inactive: -0.01 | inactive: -0.034 | inactive: 0.127 |  | 
PYGL (UniProt P06737) | inactive: -0.105 | inactive: 0.011 | inactive: 0.011 | inactive: 0.006 | inactive: -0.018 | inactive: -0.009 | inactive: 0.003 | inactive: -0.015 | inactive: 0.012 | inactive: -0.01 | inactive: -0.091 | active: -0.262 | inactive: 0.008 | inactive: -0.02 | inactive: 0.016 | inactive: -0.001 | inactive: -0.006 | inactive: 0.029 |  | 
QKI (UniProt Q96PU8) | inactive: 0.05 | inactive: -0.037 | inactive: 0.019 | inactive: 0.036 | inactive: -0.109 | inactive: 0.033 | inactive: 0.084 | inactive: -0.045 | inactive: 0.023 | inactive: -0.003 | inactive: -0.008 | inactive: -0.1 | inactive: 0.084 | inactive: 0.049 | inactive: 0.023 | inactive: 0.034 | inactive: 0.017 | inactive: -0.172 |  | 

As entered above.
log2 fold change [7] with PURA (UniProt Q00577) reads inactive: -0.143
log2 fold change [7] with PYGO2 (UniProt Q9BRQ0) reads inactive: 0.072

— the supplement of paper PMC10849652
